From the supplement of paper PMC10849652
This is one part of the list.

The chains behind the UniProt entries cited, without tags or fusion partners. Where a name states a change or a piece, a line headed by the entry shows the natural chain unless it says otherwise.
UniProt Q9BW71: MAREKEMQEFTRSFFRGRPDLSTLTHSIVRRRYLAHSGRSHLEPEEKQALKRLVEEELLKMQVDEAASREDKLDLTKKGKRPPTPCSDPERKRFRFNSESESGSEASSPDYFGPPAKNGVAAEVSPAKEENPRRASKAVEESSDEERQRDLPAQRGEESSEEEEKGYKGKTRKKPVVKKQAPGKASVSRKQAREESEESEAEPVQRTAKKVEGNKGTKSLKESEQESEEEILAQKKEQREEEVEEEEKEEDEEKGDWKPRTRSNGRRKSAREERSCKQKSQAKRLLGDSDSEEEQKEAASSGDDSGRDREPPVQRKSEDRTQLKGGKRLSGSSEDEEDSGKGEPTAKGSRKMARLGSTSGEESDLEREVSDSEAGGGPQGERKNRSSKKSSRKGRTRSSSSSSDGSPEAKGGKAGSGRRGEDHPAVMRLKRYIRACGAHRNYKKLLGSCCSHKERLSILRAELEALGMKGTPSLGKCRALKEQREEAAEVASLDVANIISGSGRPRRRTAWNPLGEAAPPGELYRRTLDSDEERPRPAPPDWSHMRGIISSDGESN
UniProt P49773: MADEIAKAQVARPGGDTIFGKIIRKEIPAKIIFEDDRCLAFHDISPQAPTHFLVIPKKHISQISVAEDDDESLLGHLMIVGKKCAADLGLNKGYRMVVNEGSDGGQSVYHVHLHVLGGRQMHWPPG
UniProt P48723: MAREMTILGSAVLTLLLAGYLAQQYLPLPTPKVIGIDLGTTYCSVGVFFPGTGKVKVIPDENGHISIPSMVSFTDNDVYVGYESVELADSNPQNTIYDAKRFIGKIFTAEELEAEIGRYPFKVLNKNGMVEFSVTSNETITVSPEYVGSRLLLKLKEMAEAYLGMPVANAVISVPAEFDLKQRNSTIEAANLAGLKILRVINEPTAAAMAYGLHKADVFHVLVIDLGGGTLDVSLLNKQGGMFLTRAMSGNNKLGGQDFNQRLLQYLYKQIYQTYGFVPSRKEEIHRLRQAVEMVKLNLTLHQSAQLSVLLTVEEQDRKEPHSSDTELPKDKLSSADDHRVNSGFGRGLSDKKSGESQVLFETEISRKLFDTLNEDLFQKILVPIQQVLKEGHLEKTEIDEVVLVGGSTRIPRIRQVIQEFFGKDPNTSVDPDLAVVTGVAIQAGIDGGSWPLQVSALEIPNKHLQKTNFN
UniProt Q86VS8: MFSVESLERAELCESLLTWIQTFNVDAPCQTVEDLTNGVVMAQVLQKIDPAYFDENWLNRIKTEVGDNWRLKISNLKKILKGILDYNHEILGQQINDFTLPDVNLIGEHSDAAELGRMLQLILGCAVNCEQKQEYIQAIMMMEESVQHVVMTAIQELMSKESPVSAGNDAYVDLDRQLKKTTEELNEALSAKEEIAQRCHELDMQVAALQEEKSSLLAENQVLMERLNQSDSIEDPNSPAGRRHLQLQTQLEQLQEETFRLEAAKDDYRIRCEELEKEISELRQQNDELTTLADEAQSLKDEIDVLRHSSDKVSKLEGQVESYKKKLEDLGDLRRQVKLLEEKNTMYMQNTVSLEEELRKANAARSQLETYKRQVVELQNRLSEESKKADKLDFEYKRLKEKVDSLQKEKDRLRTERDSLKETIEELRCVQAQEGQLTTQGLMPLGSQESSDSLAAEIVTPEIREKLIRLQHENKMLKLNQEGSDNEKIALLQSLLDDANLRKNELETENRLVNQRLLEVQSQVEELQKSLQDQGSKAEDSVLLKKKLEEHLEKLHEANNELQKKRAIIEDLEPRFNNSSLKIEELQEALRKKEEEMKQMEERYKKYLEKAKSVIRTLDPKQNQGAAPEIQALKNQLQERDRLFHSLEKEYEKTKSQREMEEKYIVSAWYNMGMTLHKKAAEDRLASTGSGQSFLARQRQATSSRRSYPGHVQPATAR
UniProt Q6NT76: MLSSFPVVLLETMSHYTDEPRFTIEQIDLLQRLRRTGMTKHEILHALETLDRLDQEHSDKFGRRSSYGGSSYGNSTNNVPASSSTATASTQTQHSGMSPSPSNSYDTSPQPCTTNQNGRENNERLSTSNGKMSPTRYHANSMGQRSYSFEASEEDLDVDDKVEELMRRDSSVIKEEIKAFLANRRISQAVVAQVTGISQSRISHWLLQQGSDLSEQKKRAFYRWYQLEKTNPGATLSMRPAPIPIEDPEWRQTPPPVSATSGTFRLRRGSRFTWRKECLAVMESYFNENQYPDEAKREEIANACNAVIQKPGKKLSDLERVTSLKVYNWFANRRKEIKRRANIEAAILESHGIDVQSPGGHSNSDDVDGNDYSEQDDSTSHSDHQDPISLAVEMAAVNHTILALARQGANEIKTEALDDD
UniProt P42694: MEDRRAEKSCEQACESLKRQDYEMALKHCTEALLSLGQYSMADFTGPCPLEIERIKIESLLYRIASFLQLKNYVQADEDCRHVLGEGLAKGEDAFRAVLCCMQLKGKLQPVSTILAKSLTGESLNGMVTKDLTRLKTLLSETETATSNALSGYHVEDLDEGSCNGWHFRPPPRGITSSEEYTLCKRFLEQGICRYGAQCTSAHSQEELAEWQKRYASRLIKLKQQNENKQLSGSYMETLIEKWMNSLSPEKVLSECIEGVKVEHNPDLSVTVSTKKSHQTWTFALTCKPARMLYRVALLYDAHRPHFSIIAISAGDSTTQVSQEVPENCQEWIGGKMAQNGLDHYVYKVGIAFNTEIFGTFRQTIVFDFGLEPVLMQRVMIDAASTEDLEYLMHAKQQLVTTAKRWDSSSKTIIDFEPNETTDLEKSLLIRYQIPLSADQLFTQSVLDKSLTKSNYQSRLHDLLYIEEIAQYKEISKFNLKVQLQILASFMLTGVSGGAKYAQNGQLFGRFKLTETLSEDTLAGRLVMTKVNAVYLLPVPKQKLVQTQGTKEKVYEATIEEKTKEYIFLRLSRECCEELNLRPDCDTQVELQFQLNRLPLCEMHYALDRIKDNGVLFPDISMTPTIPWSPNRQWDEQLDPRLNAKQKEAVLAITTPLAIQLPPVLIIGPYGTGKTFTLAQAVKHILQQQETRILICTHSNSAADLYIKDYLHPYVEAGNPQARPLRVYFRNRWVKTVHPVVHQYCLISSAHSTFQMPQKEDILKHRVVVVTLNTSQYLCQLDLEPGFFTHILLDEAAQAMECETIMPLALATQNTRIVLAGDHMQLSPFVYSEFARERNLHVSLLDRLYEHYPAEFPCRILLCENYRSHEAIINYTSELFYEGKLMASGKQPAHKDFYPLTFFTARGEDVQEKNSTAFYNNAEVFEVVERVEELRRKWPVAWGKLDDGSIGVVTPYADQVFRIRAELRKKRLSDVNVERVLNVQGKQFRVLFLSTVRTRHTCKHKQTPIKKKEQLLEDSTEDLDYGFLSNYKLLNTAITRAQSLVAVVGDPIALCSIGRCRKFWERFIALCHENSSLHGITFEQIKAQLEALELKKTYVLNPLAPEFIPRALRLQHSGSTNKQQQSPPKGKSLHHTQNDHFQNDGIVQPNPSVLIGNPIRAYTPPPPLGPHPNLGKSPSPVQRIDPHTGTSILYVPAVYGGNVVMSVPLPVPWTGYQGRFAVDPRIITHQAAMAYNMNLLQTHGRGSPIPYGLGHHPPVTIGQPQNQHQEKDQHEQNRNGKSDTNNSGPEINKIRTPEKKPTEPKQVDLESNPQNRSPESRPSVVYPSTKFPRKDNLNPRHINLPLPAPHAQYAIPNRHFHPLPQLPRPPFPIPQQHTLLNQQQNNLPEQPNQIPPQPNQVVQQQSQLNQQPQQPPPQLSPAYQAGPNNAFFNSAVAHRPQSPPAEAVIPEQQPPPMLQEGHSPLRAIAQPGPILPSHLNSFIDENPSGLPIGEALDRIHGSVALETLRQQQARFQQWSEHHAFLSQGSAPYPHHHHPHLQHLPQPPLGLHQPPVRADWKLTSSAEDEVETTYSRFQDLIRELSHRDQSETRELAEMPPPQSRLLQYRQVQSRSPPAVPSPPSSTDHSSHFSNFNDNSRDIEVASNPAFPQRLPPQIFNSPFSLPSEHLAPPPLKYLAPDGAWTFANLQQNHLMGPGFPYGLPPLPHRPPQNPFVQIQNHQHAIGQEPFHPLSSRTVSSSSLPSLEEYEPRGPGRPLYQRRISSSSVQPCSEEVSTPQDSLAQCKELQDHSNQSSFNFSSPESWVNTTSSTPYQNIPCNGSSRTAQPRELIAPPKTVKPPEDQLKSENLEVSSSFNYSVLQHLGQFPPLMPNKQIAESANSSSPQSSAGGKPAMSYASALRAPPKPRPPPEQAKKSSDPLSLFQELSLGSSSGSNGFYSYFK
UniProt Q3SXM5: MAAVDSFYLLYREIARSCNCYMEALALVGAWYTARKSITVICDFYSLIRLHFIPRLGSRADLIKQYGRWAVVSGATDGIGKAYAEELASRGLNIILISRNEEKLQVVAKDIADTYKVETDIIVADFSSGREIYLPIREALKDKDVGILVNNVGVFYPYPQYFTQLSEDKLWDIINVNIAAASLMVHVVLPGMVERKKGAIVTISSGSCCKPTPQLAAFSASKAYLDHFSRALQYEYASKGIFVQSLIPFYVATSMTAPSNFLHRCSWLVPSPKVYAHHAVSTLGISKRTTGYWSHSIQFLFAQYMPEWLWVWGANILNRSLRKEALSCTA
UniProt Q7LGA3: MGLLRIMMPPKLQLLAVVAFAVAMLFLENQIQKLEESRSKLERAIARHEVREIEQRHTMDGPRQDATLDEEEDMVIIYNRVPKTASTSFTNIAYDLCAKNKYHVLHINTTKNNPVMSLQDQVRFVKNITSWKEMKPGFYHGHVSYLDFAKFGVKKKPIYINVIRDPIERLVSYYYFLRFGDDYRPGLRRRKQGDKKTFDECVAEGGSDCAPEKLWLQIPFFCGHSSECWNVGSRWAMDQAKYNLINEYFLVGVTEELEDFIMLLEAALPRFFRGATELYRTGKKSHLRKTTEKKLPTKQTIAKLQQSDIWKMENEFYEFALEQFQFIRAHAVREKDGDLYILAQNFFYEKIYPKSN
UniProt P17066, whole entry, looked up: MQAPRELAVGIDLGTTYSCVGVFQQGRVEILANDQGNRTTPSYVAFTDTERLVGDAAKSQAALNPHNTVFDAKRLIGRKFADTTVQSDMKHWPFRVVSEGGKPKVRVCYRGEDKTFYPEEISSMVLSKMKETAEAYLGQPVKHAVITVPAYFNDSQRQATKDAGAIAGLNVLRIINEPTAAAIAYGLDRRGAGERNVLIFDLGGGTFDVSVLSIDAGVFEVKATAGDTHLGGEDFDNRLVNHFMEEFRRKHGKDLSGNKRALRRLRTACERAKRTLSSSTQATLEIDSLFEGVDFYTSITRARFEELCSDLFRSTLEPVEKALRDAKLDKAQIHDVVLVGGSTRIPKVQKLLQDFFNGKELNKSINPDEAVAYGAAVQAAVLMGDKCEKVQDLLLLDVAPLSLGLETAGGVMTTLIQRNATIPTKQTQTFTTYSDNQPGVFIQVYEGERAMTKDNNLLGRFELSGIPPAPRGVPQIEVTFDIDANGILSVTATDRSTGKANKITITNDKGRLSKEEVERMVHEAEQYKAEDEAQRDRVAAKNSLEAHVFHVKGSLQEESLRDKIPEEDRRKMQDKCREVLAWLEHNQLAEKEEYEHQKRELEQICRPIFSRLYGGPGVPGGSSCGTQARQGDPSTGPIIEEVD
UniProt Q8TCT9: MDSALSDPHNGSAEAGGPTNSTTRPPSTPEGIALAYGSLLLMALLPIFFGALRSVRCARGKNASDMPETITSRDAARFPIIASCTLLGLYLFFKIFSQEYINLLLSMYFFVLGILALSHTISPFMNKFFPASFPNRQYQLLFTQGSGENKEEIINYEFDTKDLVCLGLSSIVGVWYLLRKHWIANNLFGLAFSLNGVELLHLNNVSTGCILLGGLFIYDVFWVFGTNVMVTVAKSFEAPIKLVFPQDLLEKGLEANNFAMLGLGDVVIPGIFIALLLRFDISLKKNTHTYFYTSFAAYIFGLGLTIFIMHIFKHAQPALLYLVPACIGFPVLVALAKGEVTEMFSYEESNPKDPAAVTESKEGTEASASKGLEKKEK
UniProt Q8IX15: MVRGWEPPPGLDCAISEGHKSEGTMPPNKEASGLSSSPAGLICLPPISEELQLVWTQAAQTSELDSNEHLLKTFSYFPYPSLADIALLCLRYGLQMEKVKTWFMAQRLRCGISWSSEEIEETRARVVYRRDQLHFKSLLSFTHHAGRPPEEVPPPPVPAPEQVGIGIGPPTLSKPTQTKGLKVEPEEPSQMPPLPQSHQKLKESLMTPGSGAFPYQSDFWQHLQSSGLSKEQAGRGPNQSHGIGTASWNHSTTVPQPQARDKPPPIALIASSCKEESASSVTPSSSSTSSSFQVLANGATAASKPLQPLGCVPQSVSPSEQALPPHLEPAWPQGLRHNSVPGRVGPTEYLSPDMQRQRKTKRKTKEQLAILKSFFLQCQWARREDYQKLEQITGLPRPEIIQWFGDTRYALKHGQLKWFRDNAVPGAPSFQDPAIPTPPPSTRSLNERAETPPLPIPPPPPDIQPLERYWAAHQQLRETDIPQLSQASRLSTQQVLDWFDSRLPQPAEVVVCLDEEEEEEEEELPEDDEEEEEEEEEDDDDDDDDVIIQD
UniProt O75506: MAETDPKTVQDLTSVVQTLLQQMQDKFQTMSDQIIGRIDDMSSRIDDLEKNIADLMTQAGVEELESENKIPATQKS

Key:
Test in all cases: log2 fold change, soluble protein after heating vs DMSO (PISA); higher = thermal stabilisation; K562 lysate, 10 uM; active = over 0.2 and 3.5 SD of the protein, either way, in both replicates (recomputed)
[1] = compound: NCC(=O)Nc1ccc(-n2nc(C(F)(F)F)cc2-c2ccc3c(ccc4ccccc43)c2)cc1
In short: (§1)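 Following dounce homogenisation of K562 pellets in PBS pH 7.4 with 1 mM MgCl2, crude extract at 1 mg/mL protein was incubated for 30 min with 10 μM compound. Aliquots were then heated for 3 min over 48°C-58°C and pooled, NP-40 was added to 0.5% at 4°C, and soluble protein was recovered as the supernatant at 21,000xg for 90 min. Channel-sum-equalised TMTpro 16plex LC-MS/MS quantified this protein. Each value, from duplicates, is a log-two fold change in thermal stability relative to solvent controls.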

[2] = compound: O=C(CCCCCCC(=O)Nc1ccccc1)NO [vorinostat]
In short: as §1

[3] = compound: O=C(O)c1ccc2c(c1)nc(Nc1cccc(Cl)c1)c1ccncc12 [silmitasertib]
In short: as §1

[4] = compound: O=C1NC(=O)C(c2cnc3ccccn23)=C1c1cn2c3c(cc(F)cc13)CN(C(=O)N1CCCCC1)CC2
In short: as §1

[5] = compound: c1cn2cc(-c3ccc4cn[nH]c4c3)nc(Nc3ccc(N4CCOCC4)cc3)c2n1 [entospletinib]
In short: as §1

Target	log2 fold change [1]	log2 fold change [2]	log2 fold change [3]	log2 fold change [4]	log2 fold change [5]
HELQ (UniProt Q8TDG4)	inactive: -0.003	inactive: 0.001	inactive: 0.076	inactive: 0.017	inactive: -0.103
HINT2 (UniProt Q9BX68)	inactive: -0.089	inactive: 0.142	inactive: 0.053	inactive: 0.132	inactive: 0.045
HERC1 (UniProt Q15751)	inactive: -0.006	inactive: -0.192	inactive: -0.001	inactive: 0.006	inactive: -0.004
HMGCL (UniProt P35914)	inactive: -0.025	active: -0.226	inactive: 0.059	inactive: 0.033	inactive: 0
HECTD4 (UniProt J3KPF0)	inactive: 0.051	active: -0.472	inactive: -0.003	inactive: 0.032	inactive: 0.001
HNRNPF (UniProt P52597)	inactive: 0.002	inactive: -0.094	inactive: 0.002	inactive: -0.024	inactive: 0.004
HNRNPR isoform 2 (UniProt O43390)	inactive: -0.021	inactive: -0.123	inactive: 0.044	inactive: -0.023	inactive: 0
HIRIP3 (UniProt Q9BW71)	inactive: -0.012	inactive: 0.084	inactive: -0.05	inactive: 0.039	inactive: 0.001
HNRNPU (UniProt Q00839)	inactive: -0.035	inactive: -0.087	inactive: 0.021	inactive: -0.037	inactive: 0.019
HINT1 (UniProt P49773)	inactive: -0.115	inactive: 0.077	inactive: 0.019	inactive: -0.041	inactive: -0.089
HSPA13 (UniProt P48723)	inactive: -0.019	inactive: 0.12	inactive: 0.037	inactive: -0.018	inactive: 0.014
HRC (UniProt P23327)	inactive: 0.013	inactive: 0.174	inactive: -0.015	inactive: 0.017	inactive: 0.046
HSD17B10 (UniProt Q99714)	inactive: 0.04	active: -0.826	inactive: -0.011	inactive: -0.025	inactive: -0.004
HSD17B4 (UniProt P51659)	inactive: 0.042	inactive: 0.15	inactive: -0.025	inactive: -0.038	inactive: 0.006
HNRNPA3 (UniProt P51991)	inactive: -0.044	inactive: 0.026	inactive: 0.02	inactive: 0.023	inactive: 0.039
HNRNPD isoform 3 (UniProt Q14103)	inactive: 0.074	inactive: 0.078	inactive: 0.005	inactive: 0.09	inactive: 0
HOOK3 (UniProt Q86VS8)	inactive: 0.038	inactive: -0.079	inactive: 0.012	inactive: -0.048	inactive: 0.025
HMBOX1 isoform 5 (UniProt Q6NT76)	inactive: 0.004	inactive: 0.093	inactive: 0.025	inactive: 0.02	inactive: -0.063
HSP90AA1 isoform 2 (UniProt P07900)	inactive: -0.008	inactive: 0.13	inactive: -0.005	inactive: -0.008	inactive: -0.006
HELZ (UniProt P42694)	inactive: 0.04	inactive: -0.123	inactive: 0.017	inactive: 0.03	inactive: -0.009
HOMER1 (UniProt Q86YM7)	inactive: -0.005	inactive: 0.038	inactive: -0.024	inactive: -0.057	inactive: -0.045
HMGN5 (UniProt P82970)	inactive: -0.014	inactive: 0.14	inactive: 0.002	inactive: -0.005	inactive: 0.002
HIST2H2AA3 (UniProt Q6FI13)	inactive: -0.056	inactive: 0.12	inactive: -0.073	inactive: 0.068	inactive: -0.106
HNRNPK isoform 2 (UniProt P61978)	inactive: 0.012	inactive: -0.156	inactive: 0	inactive: -0.02	inactive: 0.023
HIST2H2BC (UniProt Q6DN03)	inactive: 0.018	inactive: 0.133	inactive: -0.098	inactive: -0.019	inactive: -0.062
HNRNPL (UniProt P14866)	inactive: 0.005	active: -0.445	inactive: 0.072	inactive: 0.028	inactive: 0.007
HIKESHI (UniProt Q53FT3)	inactive: -0.172	inactive: 0.12	inactive: -0.023	inactive: 0.006	inactive: 0.059

Target	log2 fold change [1]	log2 fold change [2]	log2 fold change [3]	log2 fold change [4]	log2 fold change [5]
HSP90AB1 (UniProt P08238)	inactive: 0.013	inactive: 0.119	inactive: -0.016	inactive: 0.009	inactive: -0.006
HMGN2 (UniProt P05204)	inactive: -0.025	inactive: 0.139	inactive: 0.017	inactive: 0.062	inactive: 0.047
HSDL1 (UniProt Q3SXM5)	inactive: -0.092	inactive: -0.006	inactive: -0.008	inactive: -0.041	inactive: 0
HIC2 (UniProt Q96JB3)	inactive: 0.016	inactive: 0.03	inactive: 0.003	inactive: 0.018	inactive: -0.019
HGH1 (UniProt Q9BTY7)	inactive: -0.055	inactive: -0.207	inactive: 0.076	inactive: 0.009	inactive: -0.023
HEATR6 (UniProt Q6AI08)	inactive: -0.005	active: -0.466	inactive: 0.047	inactive: -0.026	inactive: 0
HIP1R (UniProt O75146)	inactive: 0	inactive: -0.092	inactive: -0.039	inactive: 0.008	inactive: -0.009
HNRNPAB isoform 3 (UniProt Q99729)	inactive: 0.067	inactive: 0.189	inactive: -0.01	inactive: 0.008	inactive: -0.019
HLTF (UniProt Q14527)	inactive: 0.046	active: -0.246	inactive: 0.101	inactive: -0.101	inactive: 0.017
HS2ST1 (UniProt Q7LGA3)	inactive: -0.066	inactive: 0.144	inactive: 0.004	inactive: -0.028	inactive: 0.023
HPRT1 (UniProt P00492)	inactive: -0.008	inactive: 0.108	inactive: 0.001	inactive: -0.008	inactive: -0.017
HMGA1 (UniProt P17096)	inactive: 0.056	inactive: 0.111	inactive: 0.001	inactive: 0.038	inactive: -0.011
HSD17B12 (UniProt Q53GQ0)	inactive: 0.025	inactive: -0.009	inactive: -0.05	inactive: -0.078	inactive: 0.041
HECW2 (UniProt Q9P2P5)	inactive: -0.018	inactive: -0.058	inactive: 0.011	inactive: -0.004	inactive: -0.09
HNRNPA2B1 (UniProt P22626)	inactive: 0.003	inactive: 0.053	inactive: -0.009	inactive: -0.001	inactive: 0.012
HMCES (UniProt Q96FZ2)	inactive: -0.016	inactive: -0.154	inactive: -0.039	inactive: 0.001	inactive: 0.025
HSP90B1 (UniProt P14625)	inactive: 0.005	inactive: 0.135	inactive: 0	inactive: 0.008	inactive: 0.003
HMG20A (UniProt Q9NP66)	inactive: 0.023	inactive: 0.084	inactive: -0.04	inactive: -0.135	inactive: -0.189
HSPA6 (UniProt P17066)	inactive: 0.01	inactive: 0.083	inactive: 0.005	inactive: 0.016	inactive: 0.007
HEXIM1 (UniProt O94992)	inactive: 0.004	inactive: 0.096	inactive: 0.031	inactive: -0.063	inactive: -0.001
HNRNPA0 (UniProt Q13151)	inactive: 0.056	inactive: -0.211	inactive: -0.088	inactive: 0.044	inactive: -0.047
HNRNPLL (UniProt Q8WVV9)	inactive: 0.009	active: -0.653	inactive: 0.035	inactive: 0.004	inactive: 0.034
HM13 (UniProt Q8TCT9)	inactive: 0.04	inactive: 0.105	inactive: 0.038	inactive: 0.065	inactive: 0.013
HOMEZ isoform 3 (UniProt Q8IX15)	inactive: -0.116	inactive: -0.056	inactive: -0.033	inactive: -0.013	inactive: -0.099
HSBP1 (UniProt O75506)	inactive: -0.022	inactive: 0.229	inactive: -0.243		inactive: 0.085
HMGB2 (UniProt P26583)	inactive: 0.004	inactive: 0.122	inactive: -0.052	inactive: 0.047	inactive: 0.003

4 entries drawn at random from those above:
Target	log2 fold change [1]	log2 fold change [2]	log2 fold change [3]	log2 fold change [4]	log2 fold change [5]
HS2ST1 (UniProt Q7LGA3)	inactive: -0.066	inactive: 0.144	inactive: 0.004	inactive: -0.028	inactive: 0.023
HERC1 (UniProt Q15751)	inactive: -0.006	inactive: -0.192	inactive: -0.001	inactive: 0.006	inactive: -0.004
HIKESHI (UniProt Q53FT3)	inactive: -0.172	inactive: 0.12	inactive: -0.023	inactive: 0.006	inactive: 0.059
HLTF (UniProt Q14527)	inactive: 0.046	active: -0.246	inactive: 0.101	inactive: -0.101	inactive: 0.017
